Source: PMC10766610, “DCAF1-based PROTACs with activity against clinically validated targets overcoming intrinsic- and acquired-degrader resistance” (Nature Communications, 2024)

System: TMD8 BTK-GFP/mCh cells
Test: Viability by FSC/SSC gate (flow cytometry) in TMD8 BTK-GFP/mCh cells
Format: cell-based, human
Conditions: for V/D (GI50 Viability/DC50 BTK Degradation): Fig. 6b; for V/D (GI50 Viability/DC50 BTK Degradation) / V/D score, viability window GI50/DC50: 24 h; for V/D [GI50 Viability / DC50 Degradation]: top dose used if no DC50 or GI50; for V/D score, viability window GI50/DC50: TMD8 BTK-GFP/mCh
Method: For flow cytometry measurements, 25,000 exponentially growing TMD8 BTK-GFP/mCh cells were plated in 100 μL of each well of a 96-well plate and grown for 24 h. Cells were then dosed with corresponding compounds and doses from 10 mM DMSO stock for 24 h, after which GFP and mCherry fluorescence was read with a Beckmann Coulter Cytoflex. For competition experiment, both compounds were added at the same time and dosed for 24 h. Cells were gated based on Forward & Side Scatter and selection for Single cells using SSC-A vs. SSC-H. Further, the population of viable cells was defined by the forward & side-scatter characteristics of DMSO-treated cells. […] Effects on viability were measured by the reduction of the percentage of cells included in this viable-population gate with increasing doses of compound tested. Degradation of BTK was calculated based on subtracting background (BG) fluorescence of parental TMD8 signal via (GFP-BG)/(mCherry-BG) of viable cells. Median ratios of three technical (different wells) replicates were used to calculate daily averages. Each compound dose–response was generated via three biological replicates (different days of experiment). Degradation curve parameters (DC50 & Abs. DC50 & max. Deg) were extracted using GraphPad Prism’s 4-parameter logistic curve fitting.
The viability window was determined by measuring the GI50 of viability based on the percentage of cells included in the viable gate and comparing it to the DC50 of degradation. The fold-change difference describing this window is [GI50 Viability / DC50 Degradation], where values above 1 indicate a positive (lower DC50 degradation than AC50 viability) window.

| SMILES | V/D (GI50 Viability/DC50 BTK Degradation) | V/D [GI50 Viability / DC50 Degradation] | V/D score, viability window GI50/DC50 |
| --- | --- | --- | --- |
| Cc1c(NC(=O)c2ccc(C(C)(C)O)cc2F)cc(F)cc1-c1ncnc2[nH]c(-c3ccc(CNCCOCCOCCOCCOCCOCCOCCOCCOCCOCCOCCOCCOCCC(=O)N4CCN(c5ccc6c(NCCN)nc(C7(c8ccc(Cl)cc8)CCCCC7)nc6c5)CC4)cc3)cc12 [DBt-5] | 84.7 | 84.7 |  |
| Cc1c(NC(=O)N2CC(O)(CC(C)(C)C)C2)cc(F)cc1-c1ncnc2[nH]c(-c3cnn(CC(=O)N4CCC5(CC4)CN(CCNC(=O)CCCC(=O)N4CCN(c6ccc7c(NCCN)nc(C8(c9ccc(Cl)cc9)CCCCC8)nc7c6)CC4)CCO5)c3)cc12 [DBt-10] | > 182.6 |  |  |
| Cc1nc(Nc2ncc(C(=O)Nc3c(C)cccc3Cl)s2)cc(N2CCC(OC3CCN(CCCCCCCC(=O)N4CCN(c5ccc6c(NCCN)nc(C7(c8ccc(Cl)cc8)CCCCC7)nc6c5)CC4)CC3)CC2)n1 [DDa-1] |  | 13.1 | 13.1 |
| CCN(CC)Cc1ccc(-c2cc3c(-c4cc(F)cc(NC(=O)c5ccc(C(C)(C)O)cc5F)c4C)ncnc3[nH]2)cc1 [compound 17, reference compound] |  | 0.27 | 0.3 |
| Cc1c(NC(=O)c2ccc(C(C)(C)O)cc2F)cc(F)cc1-c1ncnc2[nH]c(-c3ccc(CN4CCC5(CCNCC5)CC4)cc3)cc12 [compound 18, reference compound] |  | 1.0 |  |
| Cc1c(NC(=O)N2CC(O)(CC(C)(C)C)C2)cc(F)cc1-c1ncnc2[nH]c(-c3cnn(CC(=O)N4CCC5(CCNCC5)CC4)c3)cc12 [compound 19] |  | 1.0 |  |
